Test results reported in US7455959B2, “Photographic element containing a speed-enhancing compound” (Eastman Kodak Company, priority 2003, dated 2008).

Legend:
[1] = Photographic speed of multilayer colour negative film coatings, stepped neutral exposure, C-41 process; conditions: test compound at 0.0806 mmol/m^2 in Part A of Layer 9 (fast magenta layer), dispersed in N,N-dibutyllauramide, difference in speed versus check
Description: (§1) Surfactants, coating aids, emulsion addenda (including 4-hydroxy-6-methyl-1,3,3a,7-tetra-azaindene), sequestrants, thickeners, lubricants, matte and tinting dyes were added to the appropriate layers as is common in the art. Formulae for the identified compounds are provided at the end of these examples.
Layer 2 (Slow cyan layer): a blend of two red-sensitized (all with a mixture of RSD-1 and RSD-2) tabular silver iodobromide emulsions: (i) 0.81×0.11 μm, 4.5 mol % I at 0.400, (ii) 0.62×0.111 μm, 4.1 mol % iodide at 0.175; cyan dye-forming couplers C-1 at 0.248 and C-2 at 0.236; bleach-accelerator releasing coupler B-1 at 0.086; image-modifier DIR-1 at 0.032; O×DS-1 at 0.010 and gelatin at 1.08. Layer 3 (Mid cyan layer): a red-sensitized (with a mixture of RSD-1 and RSD-2) iodobromide tabular emulsion (1.44×0.13 μm, 3.7 mol % I) at 0.572; C-1 at 0.265; C-2 at 0.103; B-1 at 0.011; DIR-2 at 0.043; masking coupler MC-1 at 0.022 and gelatin at 1.08. Layer 4 (Fast cyan layer): a red-sensitized (with a mixture of RSD-1, RSD-2 and RSD-3) iodobromide tabular emulsion (2.41×0.13 μm, 3.7 mol % I) at 1.286; C-1 at 0.163; DIR-2 at 0.0.054; B-1 at 0.008 and gelatin at 1.08. Layer 5 (Ultra-fast cyan layer): a red-sensitized (with a mixture of RSD-1, RSD-2 and RSD-3) iodobromide tabular emulsion (3.87×0.13 μm, 3.7 mol % I) at 1.180; C-2 at 0.175; DIR-3 at 0.060; DIR-4 at 0.001 and gelatin at 1.08. Layer 6 (Interlayer): ILS-1 at 0.075 and gelatin at 1.08. Layer 7 (Slow magenta layer): a blend of two green-sensitized (both with a mixture of GSD-1 and GSD-2) silver iodobromide tabular emulsions: (i) 1.17×0.12 μm, 4.5 mol % iodide at 0.156 and (ii) 0.62×0.111 μm, 2.6 mol % iodide at 0.573; magenta dye-forming coupler M−1 at 0.300; MC-2 at 0.090, DIR-5 at 0.032, ILS-1 at 0.011 and gelatin at 1.400. Layer 8 (Mid magenta layer): a blend of two green-sensitized (both with a mixture of GSD-1 and GSD-2) silver iodobromide tabular emulsions: (i) 2.46×0.13 μm, 3.7 mol % iodide at 0.534 and (ii) 1.45×0.13 μm, 3.7 mol % iodide at 0.370; M-1 at 0.089; MC-2 at 0.086; DIR-5 at 0.025, ILS-1 at 0.012 and gelatin at 1.438. Layer 9 (Fast magenta layer): two parts mixed together at a 1:1 ratio just prior to coating; Part A (dispersion melt): M-1 at 0.104; DIR-5 at 0.011; ILS-1 at 0.014 and gelatin at 0.420 and Part B (emulsion melt): a green-sensitized (with a mixture of GSD-1 and GSD-2) silver iodobromide tabular emulsion (2.90×0.13 μm, 3.7 mol % iodide) at 1.240; MC-2 at 0.021; DIR-6 at 0.003 and gelatin at 1.076. Layer 10 (Interlayer): ILS-1 at 0.182 and gelatin at 0.700. Layer 11 (Slow yellow layer): a blend of three blue-sensitized (all with BSD-1 and BSD-2) tabular silver iodobromide emulsions (i) 2.41×0.1 μm, 2.0 mol % I at 0.402, (ii) 1.02×0.137 μm, 2.0 mol % I at 0.136, (iii) 0.62×0.111 μm, 2.6 mol % I at 0.505; yellow dye-forming coupler Y-1 at 0.850; DIR-1 at 0.022; DIR-7 at 0.038; B-1 at 0.009 and gelatin at 1.90. Layer 12 (Fast yellow layer): a blue-sensitized (with BSD-1 and BSD-2) tabular silver iodobromide emulsion, 3.72×0.131 μm, 3.7 mol % I at 0.070 and a blue-sensitized (with BSD-1) 3-D silver iodobromide emulsion, 1.21 μm diameter), 9.7 mol % I at 1.055; Y-1 at 0.312; DIR-7 at 0.065; B-1 at 0.011, stabiliser S-1 at 0.008 and gelatin at 1.280. Layer 13 (UV Filter Layer): silver bromide Lippman emulsion at 0.215; UV-1 and UV-2 both at 0.108 and gelatin at 0.700. […]

[2] = Granularity of the green layer in a neutral exposure by the RMS method; conditions: Table 2, 48 micrometer aperture, density 1.2 log exposure units from the speed point, check = 21
Description: as §1
Layer 2 (Slow cyan layer): a blend of two red-sensitized (all with a mixture of RSD-1 and RSD-2) tabular silver iodobromide emulsions: (i) 0.81×0.11 μm, 4.5 mol % I at 0.400, (ii) 0.62×0.111 μm, 4.1 mol % iodide at 0.175; cyan dye-forming couplers C-1 at 0.248 and C-2 at 0.236; bleach-accelerator releasing coupler B-1 at 0.086; image-modifier DIR-1 at 0.032; O×DS-1 at 0.010 and gelatin at 1.08. Layer 3 (Mid cyan layer): a red-sensitized (with a mixture of RSD-1 and RSD-2) iodobromide tabular emulsion (1.44×0.13 μm, 3.7 mol % I) at 0.572; C-1 at 0.265; C-2 at 0.103; B-1 at 0.011; DIR-2 at 0.043; masking coupler MC-1 at 0.022 and gelatin at 1.08. Layer 4 (Fast cyan layer): a red-sensitized (with a mixture of RSD-1, RSD-2 and RSD-3) iodobromide tabular emulsion (2.41×0.13 μm, 3.7 mol % I) at 1.286; C-1 at 0.163; DIR-2 at 0.0.054; B-1 at 0.008 and gelatin at 1.08. Layer 5 (Ultra-fast cyan layer): a red-sensitized (with a mixture of RSD-1, RSD-2 and RSD-3) iodobromide tabular emulsion (3.87×0.13 μm, 3.7 mol % I) at 1.180; C-2 at 0.175; DIR-3 at 0.060; DIR-4 at 0.001 and gelatin at 1.08. Layer 6 (Interlayer): ILS-1 at 0.075 and gelatin at 1.08. Layer 7 (Slow magenta layer): a blend of two green-sensitized (both with a mixture of GSD-1 and GSD-2) silver iodobromide tabular emulsions: (i) 1.17×0.12 μm, 4.5 mol % iodide at 0.156 and (ii) 0.62×0.111 μm, 2.6 mol % iodide at 0.573; magenta dye-forming coupler M−1 at 0.300; MC-2 at 0.090, DIR-5 at 0.032, ILS-1 at 0.011 and gelatin at 1.400. […]

Compound | Δ Speed ([1]; Table 1) | Δ Speed ([1]; Table 1, listed as CCl) | Granularity × 10^3 [2] | Δ Speed ([1]; Table 2)
CCC(Oc1ccc(C(C)(C)CC)cc1C(C)(C)CC)C(=O)Nc1ccc2[nH]cnc2c1 (centres unmarked) [CC1, reference compound] | −0.23 stops | shows a speed loss | – | –
CCCCCCCCCCCCn1cnc(-c2ccccc2)c1-c1ccccc1 [CC2, reference compound] | – | – | 19 | –
CCCCCCCCCCCCCCCc1cccc(OC(CC)C(=O)Nc2ncc[nH]2)c1 (centres unmarked) [SGA1] | 0.07 stops | – | – | –
CCC(C)(C)c1ccc(OCC(=O)Nc2nc(C#N)c(C#N)[nH]2)c(C(C)(C)CC)c1 [SGA2] | – | – | 19 | 0.13 stops
c1ccc(-c2nc(-c3ccco3)[nH]c2-c2ccccc2)cc1 [SGA21] | – | – | 19 | 0.07 stops
